From PubChem BioAssay AID445 (National Center for Advancing Translational Sciences (NCATS), 2006)
The other results are listed elsewhere or left out. Further columns of the screen follow, without active or inactive calls. Compounds called inactive in the main read-out are mostly missing here. Potencies come from curve fits of mixed quality, noted in brackets.

Experiment: IkB Signaling
Conditions: ABC-DLBCL IkBa-CBG/CBR dual luciferase ratio (green luciferase fused to IkBa over red control in OCI-Ly3 lymphoma cells), 4 h
Method in brief: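 In this assay, an IκBα–CBG68 fusion accumulates when IKK-driven degradation is blocked; native CBR normalizes for cell number. OCI-Ly3 cells were treated 4 h with compound and doxycycline, then green and red light read after Chroma-Glo addition.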

[1] = measured here: IkB-luc green channel
[2] = measured here: control luc red channel
[3] = measured here: control luc red channel unless noted

Structure (SMILES): Cc1ccc(S(=O)(=O)N[C@@H](Cc2ccccc2)C(=O)CCl)cc1
- AC50 [1]: 3.16 µM [falling, partial curve]
- AC50 [2]: 6.31 µM [falling, full curve]

Structure (SMILES): COc1cc(/C=C/c2nc(C#N)c(NC(C)c3ccccc3)o2)cc(OC)c1OC (centres undefined)
- AC50 [3]: 12.6 µM [falling, partial curve]

Structure (SMILES): COc1cccc(-c2ccc3ncnc(NCc4ccccc4OC)c3c2)c1
- AC50 [3]: 3.98 µM [falling, partial curve]

Structure (SMILES): CN(Cc1ccccc1)C(=O)c1cc2c(s1)-c1ccc(Cl)cc1SC2
- AC50 [3]: 39.8 µM [falling, single point]

Structure (SMILES): CCN(c1ccccc1)S(=O)(=O)c1ccc(NCC2COc3ccccc3O2)nc1 (centres undefined)
- AC50 [3]: 15.8 µM [falling, partial curve]

Structure (SMILES): CCOC(=O)CCN(c1ccccc1)S(=O)(=O)c1ccc2[nH]c(=O)ccc2c1
- AC50 [3]: 0.2 µM [falling, full curve, poor fit]

Structure (SMILES): O=C(c1ccc(Cl)cc1)n1nc(-c2ccco2)nc1NCc1cccs1
- AC50 [3]: 20 µM [falling, single point]

Structure (SMILES): CCc1ccc(Oc2nc3c(C)cccn3c(=O)c2/C=C(\C#N)c2nc3ccccc3s2)cc1
- AC50 [3]: 6.31 µM [falling, partial curve]

Structure (SMILES): CN(C)c1ccc(-c2cncnc2Nc2ccc(F)cc2)cc1
- AC50 [3]: 3.98 µM [falling, partial curve]

Structure (SMILES): Cc1ccc2oc(C(=O)N(Cc3cccc(F)c3)C3CCS(=O)(=O)C3)c(C)c2c1 (centres undefined)
- AC50 [3]: 25.1 µM [falling, single point]

Structure (SMILES): Clc1ccc(OCc2nc(-c3ccncc3)no2)c(Cl)c1
- AC50 [3]: 39.8 µM [falling, single point]

Structure (SMILES): COc1cccc(OC)c1C(=O)Nc1nnc(C)s1
- AC50 [3]: 3.16 µM [rising, partial curve]

Structure (SMILES): O=C(COC(=O)C(Cc1c[nH]c2ccccc12)NC(=O)c1ccc(Br)cc1)c1ccc(Cl)cc1 (centres undefined)
- AC50 [3]: 25.1 µM [falling, single point]

Structure (SMILES): Cc1ccc2[nH]c3c(c2c1)CN(C(=O)CN1CCN(c2cccc(C)c2C)CC1)CC3
- AC50 [3]: 12.6 µM [falling, partial curve]

Structure (SMILES): CCOc1ccc(NC(=O)C2CCN(S(=O)(=O)c3cc(-c4noc(C)n4)ccc3C)CC2)cc1
- AC50 [3]: 0.0631 µM [rising, full curve, poor fit]

Structure (SMILES): CSc1cccc(-c2nnc(NC(=O)c3ccc4c(c3)OCCO4)o2)c1
- AC50 [3]: 2 µM [falling, partial curve]

Structure (SMILES): Oc1ccc2cc(SSc3ccc4cc(O)ccc4c3)ccc2c1
- AC50 [3]: 39.8 µM [rising, single point] [measured here: IkB-luc green channel]

Structure (SMILES): O=C(CCc1cn(Cc2ccccc2F)c2ccccc12)NCc1ccc(Cl)cc1
- AC50 [3]: 7.94 µM [falling, partial curve]

Structure (SMILES): COc1ccc(-c2ccc(NS(=O)(=O)c3cccc(Cl)c3)cc2)nn1
- AC50 [3]: 15.8 µM [falling, partial curve]

Structure (SMILES): O=C(c1cn(CCOc2ccccc2F)c2ccccc12)C1CCCCC1
- AC50 [3]: 12.6 µM [falling, partial curve]

Structure (SMILES): COc1ccc(NC(=O)CSc2oc(-c3cccs3)nc2S(=O)(=O)c2ccc(Br)cc2)c(OC)c1
- AC50 [3]: 3.16 µM [falling, single point]

Structure (SMILES): COc1ccc(NC(=O)c2ccccc2NC(=O)C2CCCO2)cc1 (centres undefined)
- AC50 [3]: 5.01 µM [falling, partial curve]

Structure (SMILES): Cc1ccc(Nc2sc(C(=O)c3ccccc3)c(N)c2C(=O)NC(C)C)cc1
- AC50 [3]: 31.6 µM [falling, single point]

Structure (SMILES): Cc1cccc(Cn2cc(C(=O)c3ccccc3)c(=O)c3cc4c(cc32)OCO4)c1
- AC50 [3]: 25.1 µM [falling, single point]

Structure (SMILES): CCc1nonc1NC(=O)c1oc2cc(C)c(Cl)cc2c1C
- AC50 [3]: 2 µM [rising, partial curve]

Structure (SMILES): COc1ccccc1-c1cc(C(=O)NCc2ccc(F)cc2)no1
- AC50 [3]: 12.6 µM [falling, partial curve]

Structure (SMILES): COc1ccccc1N1CCN(C(=O)c2sc3nc4n(c(=O)c3c2C)CCC4)CC1
- AC50 [3]: 39.8 µM [falling, single point]

Structure (SMILES): CCOc1ccc(C(=O)c2cn(Cc3ccccc3OC)c3cc4c(cc3c2=O)OCCO4)cc1
- AC50 [3]: 31.6 µM [falling, single point]

Structure (SMILES): CCn1c(=O)n(CC(=O)NC2CCCC(C)C2C)c(=O)c2ccccc21 (centres undefined)
- AC50 [3]: 3.16 µM [falling, partial curve]

Structure (SMILES): CCC(=O)N1CCc2cc(S(=O)(=O)CCC(=O)Nc3ccc(Cl)c(C(F)(F)F)c3)ccc21
- AC50 [3]: 12.6 µM [falling, partial curve]

Structure (SMILES): COc1cc(-c2cc(C(=O)N3CCN(c4ccccn4)CC3)c3ccccc3n2)cc(OC)c1OC
- AC50 [3]: 10 µM [falling, partial curve]

Structure (SMILES): O=C(NCC(c1ccccc1)c1ccccc1)c1nn(-c2ccccc2Cl)nc1CO
- AC50 [3]: 15.8 µM [falling, partial curve]

Structure (SMILES): CCc1ccc(S(=O)(=O)Nc2ccc(-c3ccc(N4CCCCCC4)nn3)cc2)cc1
- AC50 [3]: 3.16 µM [falling, full curve]

Structure (SMILES): CCCCOc1ccc(S(=O)(=O)N2CCN(c3ccccc3OCC)CC2)cc1
- AC50 [3]: 3.98 µM [falling, partial curve]

Structure (SMILES): COc1ccc(Cl)cc1NC(=O)CN(C)S(=O)(=O)c1ccc(Br)s1
- AC50 [3]: 12.6 µM [falling, partial curve]

Structure (SMILES): Cc1cc2c(c3oc(=O)c4ccccc4c13)CN(Cc1ccc(F)cc1)CO2
- AC50 [3]: 39.8 µM [falling, single point]

Structure (SMILES): O=C(Nc1cccc(Cl)c1)Nc1ccccc1OCc1cc(=O)n2ccccc2n1
- AC50 [3]: 0.316 µM [falling, full curve, poor fit]

Structure (SMILES): COc1cccc(CNC(=O)c2cc(-c3cccc(OC)c3)n[nH]2)c1
- AC50 [3]: 6.31 µM [falling, partial curve]

Structure (SMILES): O=S(=O)(c1ccc2[nH]c3c(c2c1)CCCCC3)N1CCN(c2ccccc2)CC1
- AC50 [3]: 12.6 µM [falling, partial curve]

Structure (SMILES): CCOC(=O)NC(NC(=O)OCC)C(=O)c1ccc(F)cc1
- AC50 [3]: 1.26 µM [falling, full curve]

Structure (SMILES): CC(=O)C1=C(c2ccc(Cl)c(Cl)c2)N(C(C)=O)n2c(C)nnc2S1
- AC50 [1]: 31.6 µM [rising, single point]
- AC50 [2]: 3.98 µM [falling, partial curve]

Structure (SMILES): CCCc1nnc2n1N=C(c1ccc(-c3cc(Cl)ccc3Cl)o1)CS2
- AC50 [3]: 15.8 µM [falling, partial curve]

Structure (SMILES): Cc1cccc(C)c1NC(=O)c1oc2c(c1C)-c1nn(Cc3ccccc3)cc1CC2
- AC50 [3]: 0.0316 µM [falling, full curve, poor fit]

Structure (SMILES): Oc1ccc(-c2nnc(-c3ccc(O)cc3)nn2)cc1
- AC50 [3]: 0.158 µM [falling, full curve]

Structure (SMILES): O=C(Cn1ncc2c3ccccc3n(Cc3ccccc3F)c2c1=O)NCCc1ccc(Cl)cc1
- AC50 [3]: 3.98 µM [falling, full curve, poor fit]

Structure (SMILES): COc1cccc(CNC(=O)CSc2c3c(nc4ccc(Cl)cc24)CCCC3)c1OC
- AC50 [3]: 12.6 µM [falling, partial curve]

Structure (SMILES): Cc1ccccc1Nc1nnc(-c2ccc(C)c(S(=O)(=O)N3CCOCC3)c2)c2ccccc12
- AC50 [3]: 39.8 µM [falling, single point]

Structure (SMILES): Cc1cccc(N2CCN(C(=O)C3CCN(S(=O)(=O)c4cccs4)CC3)CC2)c1C
- AC50 [3]: 3.98 µM [falling, partial curve]

Structure (SMILES): COc1ccc(OC)c(NC(=O)Cn2cnc3c(oc4ccccc43)c2=O)c1
- AC50 [3]: 15.8 µM [falling, partial curve]

Structure (SMILES): C1COC(NC(C2CC2)C2CC2)=N1
- AC50 [3]: 39.8 µM [falling, single point]

Structure (SMILES): Cc1ccc(CNC(=O)CN(c2ccc(Cl)cc2Cl)S(=O)(=O)c2ccccc2)cc1
- AC50 [3]: 12.6 µM [falling, partial curve]

Structure (SMILES): Cc1ccc(-n2nc3c(N4CCCC(C(=O)NCCc5ccccc5)C4)nnc(C)c3c2C)cc1 (centres undefined)
- AC50 [3]: 20 µM [falling, partial curve]

Structure (SMILES): Cc1ccc(CCNC(=O)Cn2c(-c3cccs3)cc3cc(F)ccc32)cc1
- AC50 [3]: 20 µM [falling, single point]

Structure (SMILES): CCc1cccc2sc(N3CCN(C(=O)c4cc5ccccc5cc4OC)CC3)nc12
- AC50 [3]: 7.94 µM [falling, single point]

Structure (SMILES): N#CC1=C(N)Oc2cc3c(cc2C1c1ccc(Cl)cc1)OCO3 (centres undefined)
- AC50 [3]: 25.1 µM [falling, partial curve]

Structure (SMILES): COc1ccc(CC(=O)NCc2ccc3c(c2)CCN3C(=O)c2ccc(C)cc2)cc1OC
- AC50 [3]: 12.6 µM [falling, single point]

Structure (SMILES): COc1ccc(CNC(=O)c2ccc(-c3nc(CSc4ccccc4)c(C)o3)cc2)c(OC)c1
- AC50 [3]: 20 µM [falling, partial curve]

Structure (SMILES): Cc1ccc(-c2nc(C)c(CCNC(=O)C(=O)Nc3ccc4c(c3)OCO4)s2)cc1
- AC50 [3]: 10 µM [rising, partial curve, poor fit]

Structure (SMILES): COc1ccc(CCN2C(=O)N(c3ccccc3)C(=O)C2CC(=O)Nc2ccccc2)cc1 (centres undefined)
- AC50 [3]: 39.8 µM [falling, single point]

Structure (SMILES): Cc1nc(N2CCOCC2)c2c(C(=O)N3CCN(c4cccc(C)c4C)CC3)c(C)oc2n1
- AC50 [3]: 25.1 µM [falling, single point]

Structure (SMILES): COc1ccc(Nc2cc(C(=O)NCc3ccccc3)c3ccccc3n2)c(OC)c1
- AC50 [3]: 10 µM [falling, partial curve]

Structure (SMILES): COc1ccc2c(CNCCc3ccccc3)c(C(=O)O)n(Cc3cccc(F)c3)c2c1
- AC50 [3]: 12.6 µM [falling, partial curve]
